# Laboratory results taken from patent US20170210778A1, “NOVEL COMPOUNDS” (The Provost, Fellows, Foundation Scholars, and the other …, priority 2014, published 2017).
# At least one compound was matched to its structure with a doubt left.
# Tests used:
# murine NOD1 = biological target: T1, murine NOD1 (Mus musculus, UniProt Q8BHB0); assay: NOD1 functional agonist assay, 293mNOD1-SEAP reporter cells; type: cell-based; settings: 293mNOD1 cells, OD above 3*O.D of negative control
# T1 construct: expressed in transfected cells; host or cells: HEK293
# T1 sequence (Q8BHB0 1-953): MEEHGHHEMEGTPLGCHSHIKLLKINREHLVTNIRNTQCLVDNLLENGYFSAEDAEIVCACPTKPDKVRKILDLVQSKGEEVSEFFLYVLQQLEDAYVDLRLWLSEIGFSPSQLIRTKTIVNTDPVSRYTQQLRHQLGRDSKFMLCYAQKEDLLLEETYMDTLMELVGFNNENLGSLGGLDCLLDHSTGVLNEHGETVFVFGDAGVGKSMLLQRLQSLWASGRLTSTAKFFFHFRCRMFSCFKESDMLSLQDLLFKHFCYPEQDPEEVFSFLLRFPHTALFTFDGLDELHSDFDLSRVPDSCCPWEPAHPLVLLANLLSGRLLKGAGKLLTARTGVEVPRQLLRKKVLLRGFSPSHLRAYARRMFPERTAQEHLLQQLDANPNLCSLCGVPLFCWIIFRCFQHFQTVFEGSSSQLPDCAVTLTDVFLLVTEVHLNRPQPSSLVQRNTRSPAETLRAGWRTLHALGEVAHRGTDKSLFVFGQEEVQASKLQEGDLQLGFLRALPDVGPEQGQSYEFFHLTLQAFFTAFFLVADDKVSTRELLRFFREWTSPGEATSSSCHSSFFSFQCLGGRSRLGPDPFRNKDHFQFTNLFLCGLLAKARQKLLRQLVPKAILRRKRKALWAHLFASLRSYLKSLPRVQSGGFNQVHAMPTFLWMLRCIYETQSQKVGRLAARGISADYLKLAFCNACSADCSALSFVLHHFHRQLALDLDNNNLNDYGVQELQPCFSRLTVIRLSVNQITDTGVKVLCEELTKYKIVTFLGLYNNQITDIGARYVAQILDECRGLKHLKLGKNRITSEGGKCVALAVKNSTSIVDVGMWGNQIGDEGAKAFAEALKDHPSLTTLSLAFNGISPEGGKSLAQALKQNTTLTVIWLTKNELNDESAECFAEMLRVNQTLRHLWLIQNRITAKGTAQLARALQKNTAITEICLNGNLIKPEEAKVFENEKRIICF
# Text: (§1) HEK293 cells were stably transfected with plasmid for the overexpression of the NOD1 genes and a reporter plasmid expressing a secreted embryonic alkaline phosphatase (SEAP) gene under the control of a promoter inducible by the transcription factors NF-κB and AP-1. These cells are referred herein as 293hNOD1-SEAP (for cells overexpressing the human NOD1 gene) and 293mNOD1-SEAP (for cells overexpressing the murine NOD1 gene). Upon NOD1 stimulation, these cells induce the activation of NF-κB and AP-1 and subsequently the secretion of SEAP. The reporter protein is easily detectable and measurable when using QUANTI-Blue™ (InvivoGen, San Diego, Calif.), a medium that turns purple/blue in the presence of SEAP.
# (§2) The biological activity of the compounds of the invention tested using 293hNOD1 and 293mNOD1 cells. SEAP expression was measured using the commercially available SEAP detection kit (HEK-Blue™ Detection, InvivoGen). The SEAP activity in cells was quantified using the microplate reader (FLUOStar OPTIMA, BMG laboratories), the absorbance values were read using filter with excitation at 620 nm and emission at 655 nm. The results provided in Table 2 were expressed as the concentration were a significant mean optical density (OD) can be observed (above 3*O.D of negative control). […]
# human NOD1 = biological target: T2, human NOD1 (Homo sapiens, UniProt Q9Y239); assay: NOD1 functional agonist assay, 293hNOD1-SEAP reporter cells; type: cell-based; settings: 293hNOD1 cells, OD above 3*O.D of negative control
# T2 construct: expressed in transfected cells; host or cells: HEK293
# T2 sequence (Q9Y239 1-953): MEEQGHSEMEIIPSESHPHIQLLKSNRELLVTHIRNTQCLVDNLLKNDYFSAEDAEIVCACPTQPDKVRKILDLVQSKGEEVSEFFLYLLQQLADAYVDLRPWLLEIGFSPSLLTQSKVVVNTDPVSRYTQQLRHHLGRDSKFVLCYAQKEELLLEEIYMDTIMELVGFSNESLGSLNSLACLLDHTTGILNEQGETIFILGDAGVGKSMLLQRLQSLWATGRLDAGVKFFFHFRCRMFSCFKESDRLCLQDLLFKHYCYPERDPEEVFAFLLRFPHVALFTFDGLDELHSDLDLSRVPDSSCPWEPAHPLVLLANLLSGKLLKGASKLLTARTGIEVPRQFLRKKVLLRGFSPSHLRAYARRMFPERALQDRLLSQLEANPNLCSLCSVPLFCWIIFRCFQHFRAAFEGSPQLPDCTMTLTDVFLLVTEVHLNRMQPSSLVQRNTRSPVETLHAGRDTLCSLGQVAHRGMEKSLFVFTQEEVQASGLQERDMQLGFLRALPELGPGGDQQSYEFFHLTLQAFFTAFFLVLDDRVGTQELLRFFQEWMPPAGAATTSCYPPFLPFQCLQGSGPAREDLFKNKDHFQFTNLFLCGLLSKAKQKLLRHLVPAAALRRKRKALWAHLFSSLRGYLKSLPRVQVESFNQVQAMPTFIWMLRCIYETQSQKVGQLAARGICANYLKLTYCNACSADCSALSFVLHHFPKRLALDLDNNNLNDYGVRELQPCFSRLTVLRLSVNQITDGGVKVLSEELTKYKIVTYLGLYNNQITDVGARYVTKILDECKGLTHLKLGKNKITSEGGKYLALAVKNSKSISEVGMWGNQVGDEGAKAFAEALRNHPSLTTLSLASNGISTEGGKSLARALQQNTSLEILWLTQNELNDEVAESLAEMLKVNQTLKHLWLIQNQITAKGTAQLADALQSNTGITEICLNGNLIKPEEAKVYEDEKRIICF
# Text: as §1, §2
Structure (SMILES),mNod1: concentration where a significant mean optical density (OD) can be observed (murine NOD1) [µg/mL],hNod1: concentration where a significant mean optical density (OD) can be observed (human NOD1) [µg/mL]
"CCCCCCCCCCCCCC(=O)N[C@H](C(=O)N[C@H](CCC(=O)N[C@H](CSC[C@H](N)C(=O)O)C(=O)O)C(=O)O)[C@H](C)CC [Example 11, N^5-((S)-2-(((R)-2-amino-2-carboxyethyl)thio)-1-carboxyethyl)-N^2-(tetradecanoyl-L-alloisoleucyl)-D-glutamine]",0.1,0.001
"CCCCCCCCCCCCCC(=O)N[C@@H](C)C(=O)N[C@H](CCC(=O)N[C@@H](COC[C@@H](N)C(=O)O)C(=O)O)C(=O)O [Example 37, N^5-((S)-2-((R)-2-amino-2-carboxyethoxy)-1-carboxyethyl)-N^2-(tetradecanoyl-L-alanyl)-D-glutamine]",0.1,0.1
